# Screening data, single-dose tests

From ChEMBL document CHEMBL3988442, “University of Dundee, Small-Polar-MMV Screening Library” (2021).

Mtb cholesterol medium: 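Growth of Mycobacterium tuberculosis over 4 days (cholesterol / DPPC medium with tyloxapol); the read-out is not stated. Tested at 50 µM. Higher reads as more growth inhibition (inferred: compounds with an IC50 in retests scored well above the rest). Size under these conditions: about 69,000 compounds, about 370 of them at 50% or above in at least one test.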
Mtb glucose medium: 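Whole-cell growth test on Mycobacterium tuberculosis, read after 3 days in glucose-containing 7H9 medium; the read-out is not stated. Compounds at 50 µM. Direction is inferred from retests: higher values go with more growth inhibition. About 69,000 compounds were tested under these conditions; 1.1% (about 760) showed 50% or more at least once.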

Each number is a percent effect as filed. How 0% and 100% were set is not recorded. Most values in the screen are low, and negative values occur. Compounds were drawn at random from those tested, without regard to their results. Two or more numbers in one place are separate tests of the same structure; such repeats can differ widely.

Compound | Mtb cholesterol medium | Mtb glucose medium
CCN(Cc1cccc(-c2ccncc2)c1)S(C)(=O)=O | 0.9159 | 7.816
CCc1c(NCc2cccnc2)cnn1CC(C)C | 1.919 | -3.376 & 10.73
COCCCn1ccc(NC2CCSCC2)n1 | -6.467 | -9.422 & 7.42
CC(C)c1nc(C2CCCN(C(=O)c3cccc4c3OCO4)C2)no1 (centres unmarked) | -1.676 | 5.263
O=C1N(Cc2cccnc2)CCC12CCCNC2 (centres unmarked) | -0.01548 | -57.26
CCCNC(=O)Cn1c(C)nn(C(C)(C)C)c1=O | -24.34 | 8.722
Cc1cc(C)n(-c2ccc(CNCc3ccc(F)c(F)c3)cn2)n1 | 10.5 | -0.2393
Cc1noc(C)c1-c1nc(C2CCCN(C(=O)CCN)C2)ccc1CO (centres unmarked) | 0.4073 & -10.6 | -5.604
c1ccc2c(c1)CCC21CN(CCc2ccncc2)CCO1 (centres unmarked) | 12.57 | 0.3894
COc1cc(N2CCCC3(CCN(c4cncnc4)C3=O)C2)ncn1 (centres unmarked) | -36.09 | 2.103
Cc1ccc(CNc2cc(C(=O)N3CCOCC3)nc(C)n2)cc1 | 5.647 | -1.289
Cc1ccn(-c2ccccc2NCc2ccccn2)n1 | 9.237 | 20.43 & 26.63
Cl.c1cnc2c(c1)cc([C@H]1CCCO1)n2CCN1CCCC1 | 6.115 | -11.42
O=C(O)C(F)(F)F.O=C1CC2(CNCCN(C(=O)Nc3ccccc3)C2)CN1 (centres unmarked) | 3.109 | -17.28
CC(CNC(=O)N1CCN(Cc2ccon2)CC1)Cc1cccs1 (centres unmarked) | -9.029 | -10.1
O=C(CCNc1ncccn1)NCCOc1ccc2c(c1)CCC2 | 2.806 | 0.2443
CCN1CCC2(CC1)CN(C(C)=O)c1ccc(C)cc12 | -6.411 | 10.33
CCCn1c(C)c(CC(=O)N(C)CCO)c2c1CC(C)(C)CC2=O | -52.27 | 1.24
O=C(O)C(F)(F)F.[H][C@]12CCN(C(=O)c3cccs3)C[C@@]1([H])OCCN(C1CCOCC1)C2 | -17.37 | -2.273
CC(NC(=O)NC1CCN(Cc2ccccc2)CC1)c1nncn1C (centres unmarked) | -6.74 | -8.803 & -0.6438
COCC(=O)N1CCC2(CCN(Cc3ccc(C)cc3)CC2)CC1.O=C(O)C(F)(F)F | -2.09 | -37.89 & -2.173
Cc1cc(C(C)NC(=O)Cn2nc(C)c3ccccc3c2=O)c(C)o1 (centres unmarked) | -30.11 | 14.61
CN(C)CC1CN(Cc2cc(Cl)cc3cccnc23)CCO1 (centres unmarked) | 21.15 | 29.51
COc1ccccc1-n1c(CC(C)C)nnc1SCC(=O)O | -0.7205 & -1.535 | -9.727
Cc1nc(COCC2CN(C(N)=O)Cc3nccn3C2)cs1.O=C(O)C(F)(F)F (centres unmarked) | -0.5441 | 0.5212
COc1ccc(CN2CCC3(CCCNC3)C2)cc1Cn1cccn1 (centres unmarked) | 3.522 & -24.39 | -34.45
Cc1c(S(=O)(=O)N2CCCC2c2nnc(-c3ccsc3)o2)cnn1C (centres unmarked) | -8.802 & -6.55 | -14.94
Cn1nnc2c1CCN(CC1CC1)C2COCC1CC1.O=C(O)C(F)(F)F (centres unmarked) | -18.07 & -25.09 | -21.84
Cc1nc(CNc2cccc(Cl)c2Cl)cs1 | 3.214 | 10.67
O=C(O)C(F)(F)F.[H][C@@]12CCN(c3ccc(C)nn3)[C@@]1([H])CCN2C(=O)Cc1ccccc1 | -5.807 | -6.549
Cc1cc(C)cc(OCCC(=O)N2CCOCC2c2ncon2)c1 (centres unmarked) | -11.61 | -2.985
Cc1cncc(C(=O)NCCSCc2cccs2)c1 | -3.391 | 23.35
Cc1nc(C)n(CC2CCCN2c2ncnc3sccc23)n1 (centres unmarked) | -44.01 | -4.006
CCn1cc(NC(=O)C2CCN(CC(=O)NC(C)(C)CC)CC2)cn1 | -4.329 | -0.6639
O=c1c2cccc(F)c2ncn1CCN1CCOCC1 | -15.75 | -14.77
COc1ccc(C(=O)O)cc1-c1cccc2c1CCNC2 | -0.7425 | -3.504 & -2.881
CN(CCCc1ccccc1)C(=O)c1ccccc1NCC(=O)O | -14.25 | 20.06
Cc1ccc(CCC(=O)N2CCCC(n3cncn3)C2)c(C)c1 (centres unmarked) | -22.2 | -20.03
Cn1c(Cn2ccnc2)nnc1C1CCCN(CC(C)(C)C)C1 (centres unmarked) | -7.955 | -7.654 & 8.166
CN(CC1CCN(c2ccccc2)C1)c1ccc(Cn2ccnc2)cn1 (centres unmarked) | 67.99 & 49.16 | 59.97 & 48.5
Cn1ccnc1C(=O)NCCS(=O)(=O)c1ccc(C(C)(C)C)cc1 | -15.23 | -7.002
CC(=O)Nc1ccc(F)c(S(=O)(=O)NC(C)(C)C)c1 | 7.805 | -19.22
CC[C@@H]1N(Cc2nccs2)CCC[C@]12CCC(=O)N2CCOC.O=C(O)C(F)(F)F | -5.89 | 26.17
O=C(NCCn1ccnc1)c1cc(F)cc(Br)c1 | 8.149 | 24.89
CC[C@H](C)Nc1ncc(-c2cccc(NC(=O)CNC)c2)cn1 | -13.76 | 23.41
CN(C)C(C(=O)N1CC(c2ccccn2)C1)c1cccc(F)c1 (centres unmarked) | -3.081 | 5.609
COc1ccc(C(=O)N2C[C@@H](C(=O)O)[C@H](c3ccccc3)C2)c(O)c1 | -5.013 | 17.16 & -0.06012
Cc1cc(C(=O)NS(=O)(=O)Cc2ccon2)c(C)n1C(C)C | 6.498 | -1.702 & 18.69
Cc1nnc2n1CCN(C(=O)c1cnc3c(cnn3CC(C)C)c1)C2 | -27.89 | -8.087
CN(C)C(=O)c1cn[nH]c1C1(C)CCCN(Cc2ccccn2)C1 (centres unmarked) | 10.03 | 30.86
O=C(C1CCCC1)N1CCOC(c2nc(-c3ncccn3)no2)C1 (centres unmarked) | -12.2 | 2.033
Cn1cc(CN2CCC(F)(F)C3(CCN(c4ccccn4)C3)C2)cn1.O=C(O)C(F)(F)F.O=C(O)C(F)(F)F (centres unmarked) | 15.48 | 22.82
CCc1ncc2c(n1)CN(C(=O)c1c(C)[nH]c(C(C)=O)c1C)C2 | -12.43 | -27.35
COCCN(Cc1ccc(F)cc1Cl)C(=O)c1cccc[n+]1[O-] | -1.327 | -0.7123 & -5.468
Cc1ccnc(NCC2(N(C)C)CCOCC2)n1 | 8.249 & -7.885 | 20.96
CCCc1cc(C(=O)N2CCCN(c3cccnn3)CC2)[nH]n1 | -8.069 | -38.26
CCc1noc(CNc2ccc(F)cc2OCC2CC2)n1 | 38.72 | 18.92
OCCOc1cc(F)ccc1NCc1nc(-c2cccs2)no1 | 7.827 | 23.24
CN(CC(=O)N1CCC(COc2ccccc2)CC1)c1cnccn1 | 10.16 | 20.57
N#Cc1ccccc1OCCN1CCCC1Cn1cccn1 (centres unmarked) | -0.3181 | 27.47
CC(C)C[C@H](N)C(=O)N1CCSc2ccccc2C1.Cl | -1.15 | -7.922

Once more, the final 6:

{"compound": "CCCc1cc(C(=O)N2CCCN(c3cccnn3)CC2)[nH]n1", "Mtb cholesterol medium": -8.069, "Mtb glucose medium": -38.26}
{"compound": "CCc1noc(CNc2ccc(F)cc2OCC2CC2)n1", "Mtb cholesterol medium": 38.72, "Mtb glucose medium": 18.92}
{"compound": "OCCOc1cc(F)ccc1NCc1nc(-c2cccs2)no1", "Mtb cholesterol medium": 7.827, "Mtb glucose medium": 23.24}
{"compound": "CN(CC(=O)N1CCC(COc2ccccc2)CC1)c1cnccn1", "Mtb cholesterol medium": 10.16, "Mtb glucose medium": 20.57}
{"compound": "N#Cc1ccccc1OCCN1CCCC1Cn1cccn1", "stereo": "centres unmarked", "Mtb cholesterol medium": -0.3181, "Mtb glucose medium": 27.47}
{"compound": "CC(C)C[C@H](N)C(=O)N1CCSc2ccccc2C1.Cl", "Mtb cholesterol medium": -1.15, "Mtb glucose medium": -7.922}